Drawing on publication PMC7819943, “Rice protein-binding microarrays: a tool to detect cis-acting elements near promoter regions in rice”, this text covers binding signal for 42 sequences.

Some of the results follow.

This assay has as its target T1, OsSMF1 (Oryza sativa, UniProt Q6ZLB0 1-436).
T1 sequence: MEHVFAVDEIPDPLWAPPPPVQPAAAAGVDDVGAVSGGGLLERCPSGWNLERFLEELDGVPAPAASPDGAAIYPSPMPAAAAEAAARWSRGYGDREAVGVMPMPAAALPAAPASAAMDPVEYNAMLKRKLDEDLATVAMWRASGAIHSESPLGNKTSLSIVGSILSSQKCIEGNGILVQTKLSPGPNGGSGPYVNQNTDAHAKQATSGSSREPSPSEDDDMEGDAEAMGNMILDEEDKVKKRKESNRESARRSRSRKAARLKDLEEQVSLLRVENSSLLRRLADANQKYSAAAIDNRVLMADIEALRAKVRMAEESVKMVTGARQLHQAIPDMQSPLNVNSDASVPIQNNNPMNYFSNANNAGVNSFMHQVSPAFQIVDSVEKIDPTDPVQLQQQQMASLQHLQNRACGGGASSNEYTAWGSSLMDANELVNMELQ
Kind of assay: protein-binding microarray (RPBM); PBS, 2% BSA, 51.3 ng/ul salmon testes DNA, 50 uM zinc acetate, 200 nM TF, 25 C, 1 h; high values mean tight binding. The conditions noted are these: protein: recombinant; tags: N-terminal polyhistidine and DsRed monomer fusion (pET32a); chain copies: 2; label: CyDye5-dUTP incorporated in the synthesized complementary strand; 3' TTTTT single-stranded linker to array surface; dsDNA, one strand shown. The method, boiled down: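 An Axon 4000B scanner gave the binding signal as per-feature fluorescence intensity in arbitrary units. This followed washing of a custom Agilent array that had been incubated for 1 h at 25 °C with 200 nM protein in PBS, 2% BSA, salmon testes DNA and 50 µM zinc acetate. The proteins were transcription factors fused at the N-terminus to polyhistidine and DsRed, expressed in E. coli BL21-CodonPlus and purified on Ni–NTA.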
Take “TGTTCGTCGCCGCCATCCCACTGACTACCTCGACATAGTTCGGAGTCACCTAGTGCAG”: the binding signal was 3900 fluorescence intensity (a.u.).

With “ATGTCAGTGACACATGAGACTCCTCCTCCGTGCTCCGTAACGGAGTCACCTAGTGCAG”, the binding signal is 3660 fluorescence intensity (a.u.).

Turning to “AAGGCGCCACGTGGCACTAACGGCTATTTGACCGTTCAAACGGAGTCACCTAGTGCAG”, the binding signal was 21300 fluorescence intensity (a.u.).

For “CCCTTCGTCGACACGCACCCCTGACCTCATATTTTCGCTTCGGAGTCACCTAGTGCAG”, the binding signal is 5650 fluorescence intensity (a.u.).

On to “ACTAGGGTACCAGGGTAACAGGTATTAGCCTGGTAACCAACGGAGTCACCTAGTGCAG”, for which the binding signal is 3480 fluorescence intensity (a.u.).

“GTACATGCATACTGCTAAGACTATAACTAACATGGTTATTCGGAGTCACCTAGTGCAG”: the binding signal is 23000 fluorescence intensity (a.u.).

For the sequence “GCCTTGTCACCAGTCATCAGTCCACTCATCCCCATGCCCCCGGAGTCACCTAGTGCAG”, the binding signal was 5050 fluorescence intensity (a.u.).

For “GGAAGGCGTTTGATGTGGCAAAACTCATTGGGTCACTGTGCGGAGTCACCTAGTGCAG”, the binding signal is 5920 fluorescence intensity (a.u.).

“TATAATTGATGTACATCGATGATTAATTCTCTAACAGATCCGGAGTCACCTAGTGCAG”: the binding signal is 29700 fluorescence intensity (a.u.).

Turning to “ATTATGTTACGTTGTTTCGCTGTGTCACACATGTACCAGACGGAGTCACCTAGTGCAG”, the binding signal was 5720 fluorescence intensity (a.u.).

Consider “GGGTGGGCGTGATGGAGTTGGGTCGGCCGGGGTGTCCGGTCGGAGTCACCTAGTGCAG”, for which the binding signal was 3220 fluorescence intensity (a.u.).

For the sequence “AGAGAGCAGTGGAGTGCTGTCAGCCGTTGGATGGCCATCCCGGAGTCACCTAGTGCAG”, the binding signal was 3400 fluorescence intensity (a.u.).

Consider “ACATCATCGGCTACGTCAGGTCCAGCGCCGCCGCCAAGGCCGGAGTCACCTAGTGCAG”, for which the binding signal was 6640 fluorescence intensity (a.u.).

As to “CACTTTCTGAACCTCTGAATTTTGTGGCTGCACACTGAAACGGAGTCACCTAGTGCAG”, the binding signal is 3480 fluorescence intensity (a.u.).

As to “GCCGGCCTGGGAGGCCGAAGGTTGGGGATGACAGGTGGGGCGGAGTCACCTAGTGCAG”, the binding signal is 3160 fluorescence intensity (a.u.).

For “AGGGCAAAATTTGATAGAGCTTTTAGAATCCCAAACATCACGGAGTCACCTAGTGCAG”, the binding signal is 29400 fluorescence intensity (a.u.).

As to “CGAAGTGCTTGGCCCCGAACCGGTGCGTGTACCGCCCCTGCGGAGTCACCTAGTGCAG”, the binding signal is 6160 fluorescence intensity (a.u.).

“CACGAGTGCCTCTCCGTCATGCTCCACGACAGCTGCAGCCCGGAGTCACCTAGTGCAG”: the binding signal is 4760 fluorescence intensity (a.u.).

As to “GACCAGCGCGGGAGGCGAGCTCGGCGGCTGACGCAGAAGACGGAGTCACCTAGTGCAG”, the binding signal is 3230 fluorescence intensity (a.u.).

In the case of “TGAAAATTTGATATATCATTTGCAACGTGGATAAATGAGACGGAGTCACCTAGTGCAG”, the binding signal was 4130 fluorescence intensity (a.u.).

With “TCTGTTGACATGGCATCTCTGGACATTGCTGATCAGTGTGCGGAGTCACCTAGTGCAG”, the binding signal was 6710 fluorescence intensity (a.u.).

Turning to “CCACGTCGACGGCCTCACCGTGTCCGGCGGCACCCTCGACCGGAGTCACCTAGTGCAG”, the binding signal is 18400 fluorescence intensity (a.u.).

“GTGCCGGGGTGCCTAACCCAGTGACGCACCGAGCCGGGTTCGGAGTCACCTAGTGCAG”: the binding signal is 3570 fluorescence intensity (a.u.).

Take “TGGCGCGGTGGGCGCGGGCATTCTGCGTCATCCGCTTCGACGGAGTCACCTAGTGCAG”: the binding signal was 7020 fluorescence intensity (a.u.).

As to “GTATATCTTCAAAGGTGACAGTGCTGACAGCTTCTTGGCACGGAGTCACCTAGTGCAG”, the binding signal is 3760 fluorescence intensity (a.u.).

As to “TATGTTAGCGGTTCTCATTGAGAGAGCTAAATGCGATGGTCGGAGTCACCTAGTGCAG”, the binding signal is 3350 fluorescence intensity (a.u.).

On to “CTCCTCCGCCGCAACGTTCGCCGCATCCACGCGTCGGCGCCGGAGTCACCTAGTGCAG”, for which the binding signal is 5120 fluorescence intensity (a.u.).

Consider “GTCCCGTATGCATGCAACTAGACAACCAAGATAGTCATCACGGAGTCACCTAGTGCAG”, for which the binding signal is 7030 fluorescence intensity (a.u.).

For the sequence “ATTATATTATGTGTTTTATTTATTTTATTAGCAACGTGGACGGAGTCACCTAGTGCAG”, the binding signal was 4170 fluorescence intensity (a.u.).

Consider “TTACTCGGATGCAGCTGTTATGGTGGAAGGGGATTGATGACGGAGTCACCTAGTGCAG”, for which the binding signal is 3190 fluorescence intensity (a.u.).

In the case of “GAGCGTACGTTTCAACGCCAACTCATTGCCGCGGTTGCGTCGGAGTCACCTAGTGCAG”, the binding signal was 3590 fluorescence intensity (a.u.).

In the case of “TGCACATATGTATCACACTACCGTGTCACTCTGTCAATACCGGAGTCACCTAGTGCAG”, the binding signal is 5280 fluorescence intensity (a.u.).

On to “AATGGGAGTGGCATCGTTTAGTGGTGATGGTGTGGCATCACGGAGTCACCTAGTGCAG”, for which the binding signal is 3520 fluorescence intensity (a.u.).

On to “CTGATCCACATCGACTACATCGAGGCCATCCGGCGGCTCCCGGAGTCACCTAGTGCAG”, for which the binding signal was 3220 fluorescence intensity (a.u.).

For the sequence “CATCACTCCATACAAACAACAAGAACACAACACACTTGATCGGAGTCACCTAGTGCAG”, the binding signal is 20700 fluorescence intensity (a.u.).

As to “AAACTGACATGATCCGATCAACATGATATATAGGCTAGCCCGGAGTCACCTAGTGCAG”, the binding signal is 3180 fluorescence intensity (a.u.).

“TTCTGTTTGGAGTTAGACTTTTGGTCTGTTTCTTGGGTTGCGGAGTCACCTAGTGCAG”: the binding signal is 4460 fluorescence intensity (a.u.).

Take “GCTAGCTATTCTGAGTCTTCTGACTCAGCATTCTTCTGCTCGGAGTCACCTAGTGCAG”: the binding signal was 33700 fluorescence intensity (a.u.).

Consider “TGTATATATGCATGCGCCAAGGACAGGTCATTAGCTTCTTCGGAGTCACCTAGTGCAG”, for which the binding signal was 3670 fluorescence intensity (a.u.).

For “ACGACAGCGTAATGCCGGATTCAACAAGCAAGTCAGCAGCCGGAGTCACCTAGTGCAG”, the binding signal is 4140 fluorescence intensity (a.u.).

Regarding “CCACCTACGGCGCATGCCGTCTGCCACGTAGAGCCCACCGCGGAGTCACCTAGTGCAG”, the binding signal was 8720 fluorescence intensity (a.u.).

Take “GTATCTAGATTTATGGCATAAACATACATGTAGCTATATTCGGAGTCACCTAGTGCAG”: the binding signal is 3910 fluorescence intensity (a.u.).
